From publication PMC11031989 come the findings set out here.

By UniProt entry, the sequences of proteins in these tests, tags left out. Where a name states a change or a piece, a line headed by the entry shows the natural chain unless it says otherwise. Chains listed by the source or under a name are the forms on record and can include a tag or linker.
HA-tagged 5-HT7R E325G (P32304, form named): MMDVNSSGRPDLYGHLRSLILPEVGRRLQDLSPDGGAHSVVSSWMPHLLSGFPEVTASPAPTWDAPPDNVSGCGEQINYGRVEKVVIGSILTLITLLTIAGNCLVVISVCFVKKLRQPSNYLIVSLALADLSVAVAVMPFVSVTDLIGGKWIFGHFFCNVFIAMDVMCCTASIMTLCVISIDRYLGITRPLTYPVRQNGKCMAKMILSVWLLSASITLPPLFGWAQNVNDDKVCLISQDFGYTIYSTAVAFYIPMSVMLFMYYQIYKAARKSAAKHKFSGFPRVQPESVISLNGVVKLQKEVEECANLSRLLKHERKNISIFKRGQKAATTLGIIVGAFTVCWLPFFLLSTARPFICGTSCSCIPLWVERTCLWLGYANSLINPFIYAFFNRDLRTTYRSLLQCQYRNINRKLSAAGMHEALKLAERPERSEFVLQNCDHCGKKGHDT
HA-tagged 5-HT7R E325G;K327S (P32304, form named): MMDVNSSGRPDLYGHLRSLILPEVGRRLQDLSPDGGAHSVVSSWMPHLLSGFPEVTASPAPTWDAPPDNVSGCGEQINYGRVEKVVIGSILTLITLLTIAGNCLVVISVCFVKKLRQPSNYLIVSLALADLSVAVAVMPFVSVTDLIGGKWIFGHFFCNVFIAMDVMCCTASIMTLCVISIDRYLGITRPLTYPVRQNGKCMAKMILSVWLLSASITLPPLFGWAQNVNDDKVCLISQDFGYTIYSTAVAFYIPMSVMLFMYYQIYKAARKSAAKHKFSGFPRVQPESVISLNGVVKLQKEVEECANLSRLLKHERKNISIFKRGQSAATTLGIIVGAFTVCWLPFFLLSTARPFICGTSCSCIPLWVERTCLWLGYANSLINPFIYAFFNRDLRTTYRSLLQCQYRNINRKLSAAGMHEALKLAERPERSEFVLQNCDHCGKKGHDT
HA-tagged 5-HT7R K327S (P32304, form named): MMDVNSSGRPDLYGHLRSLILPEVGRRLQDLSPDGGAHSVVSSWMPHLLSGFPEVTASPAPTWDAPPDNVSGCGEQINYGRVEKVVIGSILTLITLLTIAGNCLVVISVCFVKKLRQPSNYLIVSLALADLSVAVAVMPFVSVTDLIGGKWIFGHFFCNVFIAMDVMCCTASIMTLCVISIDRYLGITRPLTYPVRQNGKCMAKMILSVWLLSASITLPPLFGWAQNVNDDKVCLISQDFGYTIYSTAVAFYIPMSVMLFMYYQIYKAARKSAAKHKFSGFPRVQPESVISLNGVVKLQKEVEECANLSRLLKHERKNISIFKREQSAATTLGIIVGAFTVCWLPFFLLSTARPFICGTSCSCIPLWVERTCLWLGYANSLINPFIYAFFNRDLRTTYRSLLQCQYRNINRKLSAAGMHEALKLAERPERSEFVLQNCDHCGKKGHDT

Assay [1] addresses mCherry-tagged CDK5 (cyclin-dependent kinase 5) (UniProt Q00535). The assay can be described thus: co-IP; N1E-115 cells co-transfected with mCherry-tagged CDK5 and HA-tagged 5-HT7R constructs; IP with anti-mCherry antibody, Western blot with anti-HA antibody; ratio of co-precipitated receptor normalized to the WT sample; also done after knock-down of Gαs by shRNA (Additional file 5). Background: A western blot detects proteins with antibodies after separation by electrophoresis.

Assay [2] has as its target mCherry-tagged 5-HT7R (serotonin receptor 7), wild type (UniProt P32304). The assay can be described thus: co-IP; N1E-115 cells co-transfected with mCherry-tagged 5-HT7R and eCFP-tagged CDK5, lysed in RIPA buffer; IP overnight with anti-mCherry antibody (goat IgG as control), protein A sepharose; Western blot with anti-CFP antibody.
The target is the same in assay [3]. The assay can be described thus: condition: only cells expressing only one type of protein mixed prior to lysis ("mix" samples); co-IP; control 'mix': N1E-115 cells expressing only mCherry-5-HT7R or only eCFP-tagged CDK5 mixed prior to lysis; IP with anti-mCherry antibody, Western blot with anti-CFP antibody.

No constants are given. Whether binding was seen depends on the method and setting. Binding seen in cells or lysates may run through a third protein. Some binding calls cover weakened binding; strength is not graded here.

As for “HA-tagged 5-HT7R E325G (from UniProt P32304 1-448) (receptor)”, the binding result in assay [1] is on record as “binds”.
The same measure, in the same setting: then “HA-tagged 5-HT7R E325G;K327S (from UniProt P32304 1-448) (receptor)”, with “binds”.
On the same count and under the same terms, then “HA-tagged 5-HT7R K327S (from UniProt P32304 1-448) (receptor)”, with “binds”; and “HA-tagged 5-HT7R ΔR395 (from UniProt P32304 1-394) (domain or fragment)”, with “binds”.
As for “eCFP-tagged CDK5 (cyclin-dependent kinase 5) (from UniProt Q00535 1-292) (enzyme)”, the binding entry was “binds” in assay [2] and “no binding” in assay [3].
